Source: PMC10644093
Results are given in words; binding and its absence hold for the method and conditions named. In cells and extracts the contact can be indirect. Some entries that bind do so weakly or less than the wild type.

Amino acid sequences for entries named in this document (tags omitted). Residues count along the entry.
UniProt P9WGT7, residues 23-370: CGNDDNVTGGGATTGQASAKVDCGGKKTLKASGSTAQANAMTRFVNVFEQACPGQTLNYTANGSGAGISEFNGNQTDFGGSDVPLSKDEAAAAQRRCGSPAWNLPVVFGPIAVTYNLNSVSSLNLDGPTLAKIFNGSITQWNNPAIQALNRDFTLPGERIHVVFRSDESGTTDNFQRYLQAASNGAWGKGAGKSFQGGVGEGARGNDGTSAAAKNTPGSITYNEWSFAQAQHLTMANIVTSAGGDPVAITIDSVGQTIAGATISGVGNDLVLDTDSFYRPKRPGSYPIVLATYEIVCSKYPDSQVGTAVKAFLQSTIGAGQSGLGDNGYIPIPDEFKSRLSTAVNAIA

Biological target: Flag-tagged Mycobacterium tuberculosis Rv0928 protein stably expressed in RAW264.7 cells (RAW-Rv0928) (Mycobacterium tuberculosis H37Rv) (UniProt P9WGT7)
Experiment: co-IP

B1: mitochondrial phosphate carrier protein SLC25A3 (protein, UniProt Q8VEM8 46-357)
chain: AVEEYSCEFGSMKYYALCGFGGVLSCGLTHTAVVPLDLVKCRMQVDPQKYKGIFNGFSITLKEDGVRGLAKGWAPTLIGYSMQGLCKFGFYEVFKALYSNILGEENTYLWRTSLYLASSASAEFFADIALAPMEAAKVRIQTQPGYANTLREAVPKMYKEEGLNAFYKGVAPLWMRQIPYTMMKFACFERTVEALYKFVVPKPRSECTKAEQLVVTFVAGYIAGVFCAIVSHPADSVVSVLNKEKGSTASQVLQRLGFRGVWKGLFARIIMIGTLTALQWFIYDSVKVYFRLPRPPPPEMPESLKKKLGLTE
binding: binds
